Assay results: PMC7501302
No constants are given. Whether binding was seen depends on the method and setting. Binding seen in cells or lysates may run through a third protein. Here binding means that the protein was enriched with, or labelled near, the bait; the list need not be complete. Tags and fused reporters may be left off the sequences shown.

The chains behind the UniProt entries cited, without tags or fusion partners.
UniProt O95251: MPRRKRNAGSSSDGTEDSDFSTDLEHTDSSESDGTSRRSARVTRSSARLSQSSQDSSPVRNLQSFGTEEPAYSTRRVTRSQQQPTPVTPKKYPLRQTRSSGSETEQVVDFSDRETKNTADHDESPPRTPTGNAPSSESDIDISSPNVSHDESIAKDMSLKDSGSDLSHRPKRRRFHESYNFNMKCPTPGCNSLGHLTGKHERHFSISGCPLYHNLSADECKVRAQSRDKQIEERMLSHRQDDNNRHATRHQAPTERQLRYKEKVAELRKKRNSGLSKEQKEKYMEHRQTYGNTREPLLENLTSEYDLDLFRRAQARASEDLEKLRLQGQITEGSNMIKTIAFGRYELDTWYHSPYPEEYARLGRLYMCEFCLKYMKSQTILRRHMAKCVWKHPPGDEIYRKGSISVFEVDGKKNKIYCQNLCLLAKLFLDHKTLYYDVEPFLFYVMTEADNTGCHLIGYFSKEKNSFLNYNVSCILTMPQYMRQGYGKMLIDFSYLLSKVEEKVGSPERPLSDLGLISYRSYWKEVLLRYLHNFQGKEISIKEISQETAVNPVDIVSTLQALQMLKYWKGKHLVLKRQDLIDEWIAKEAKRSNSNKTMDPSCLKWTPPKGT

Biological target: T1, FLAG-PKD1 (protein kinase D1), expressed in HEK293T cells (UniProt Q15139)
T1 sequence: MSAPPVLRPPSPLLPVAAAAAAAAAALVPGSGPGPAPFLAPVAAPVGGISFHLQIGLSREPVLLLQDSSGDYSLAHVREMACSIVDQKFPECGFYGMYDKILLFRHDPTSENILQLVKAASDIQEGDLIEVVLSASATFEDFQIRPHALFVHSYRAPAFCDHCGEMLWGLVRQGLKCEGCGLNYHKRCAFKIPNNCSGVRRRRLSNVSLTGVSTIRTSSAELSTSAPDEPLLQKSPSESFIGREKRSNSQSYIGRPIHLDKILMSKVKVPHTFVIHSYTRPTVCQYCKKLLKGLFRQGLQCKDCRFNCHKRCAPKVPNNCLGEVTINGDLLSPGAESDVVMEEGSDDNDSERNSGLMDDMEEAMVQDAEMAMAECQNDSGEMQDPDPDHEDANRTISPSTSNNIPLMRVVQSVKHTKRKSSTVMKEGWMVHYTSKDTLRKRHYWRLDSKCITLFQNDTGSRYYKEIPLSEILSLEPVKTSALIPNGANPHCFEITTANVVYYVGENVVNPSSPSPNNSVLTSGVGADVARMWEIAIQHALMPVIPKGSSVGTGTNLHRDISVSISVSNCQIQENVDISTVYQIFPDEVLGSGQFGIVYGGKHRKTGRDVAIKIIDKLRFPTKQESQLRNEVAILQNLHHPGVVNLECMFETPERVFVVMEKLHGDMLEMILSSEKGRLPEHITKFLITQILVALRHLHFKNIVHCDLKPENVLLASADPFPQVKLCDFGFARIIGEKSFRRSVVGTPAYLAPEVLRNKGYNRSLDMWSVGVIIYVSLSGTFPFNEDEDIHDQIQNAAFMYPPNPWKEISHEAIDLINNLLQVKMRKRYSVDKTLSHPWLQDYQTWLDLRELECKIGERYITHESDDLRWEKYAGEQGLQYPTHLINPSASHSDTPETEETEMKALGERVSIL
Assay: affinity purification with mass spectrometry; extracts of HEK293T cells overexpressing FLAG-PKD1, anti-FLAG antibody and protein G-Sepharose; eluate on SDS-PAGE, silver stained, bands analysed by LC-MS/MS

binding: binds
Substance: endogenous KAT7 (from UniProt O95251 1-611)
